Experimental data taken from PMC12208403.
No constants are given. Whether binding was seen depends on the method and setting. Binding seen in cells or lysates may run through a third protein. Binding calls can cover weak binding; strength is not graded here.

Chains of the proteins cited; added tags and fusions are not shown. Lines headed by an entry give the natural chain unless they say otherwise; changes in a name come on top.
UniProt P63172: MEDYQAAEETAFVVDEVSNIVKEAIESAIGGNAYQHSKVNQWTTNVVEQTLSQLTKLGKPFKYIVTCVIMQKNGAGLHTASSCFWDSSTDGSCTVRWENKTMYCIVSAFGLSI
UniProt Q9UM00: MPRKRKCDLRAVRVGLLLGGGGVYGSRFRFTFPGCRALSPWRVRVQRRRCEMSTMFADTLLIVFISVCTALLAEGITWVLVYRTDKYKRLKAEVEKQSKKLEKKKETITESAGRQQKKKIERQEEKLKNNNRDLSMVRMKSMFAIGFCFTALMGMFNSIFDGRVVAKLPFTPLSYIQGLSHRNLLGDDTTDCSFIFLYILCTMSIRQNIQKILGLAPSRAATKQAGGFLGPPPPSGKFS

Biological target: Dynein light chain type 1 (DYNLT1) (human (endogenous in iPSC-aCMs)) (UniProt P63172)
Test: co-IP; IP of endogenous DYNLT1 from iPSC-aCM lysate with anti-DYNLT1 antibody or control IgG, Protein A/G magnetic beads; Western blot for TMCO1 and DYNLT1; three independent experiments

binding: binds
Substance: TMCO1 (from UniProt Q9UM00)
